Measurements from “University of Dundee, Small-Polar-MMV Screening Library” (2021), ChEMBL document CHEMBL3988442.

By UniProt entry, the sequences of proteins in these tests, tags left out.
UniProt E9BF75, entry or part of it: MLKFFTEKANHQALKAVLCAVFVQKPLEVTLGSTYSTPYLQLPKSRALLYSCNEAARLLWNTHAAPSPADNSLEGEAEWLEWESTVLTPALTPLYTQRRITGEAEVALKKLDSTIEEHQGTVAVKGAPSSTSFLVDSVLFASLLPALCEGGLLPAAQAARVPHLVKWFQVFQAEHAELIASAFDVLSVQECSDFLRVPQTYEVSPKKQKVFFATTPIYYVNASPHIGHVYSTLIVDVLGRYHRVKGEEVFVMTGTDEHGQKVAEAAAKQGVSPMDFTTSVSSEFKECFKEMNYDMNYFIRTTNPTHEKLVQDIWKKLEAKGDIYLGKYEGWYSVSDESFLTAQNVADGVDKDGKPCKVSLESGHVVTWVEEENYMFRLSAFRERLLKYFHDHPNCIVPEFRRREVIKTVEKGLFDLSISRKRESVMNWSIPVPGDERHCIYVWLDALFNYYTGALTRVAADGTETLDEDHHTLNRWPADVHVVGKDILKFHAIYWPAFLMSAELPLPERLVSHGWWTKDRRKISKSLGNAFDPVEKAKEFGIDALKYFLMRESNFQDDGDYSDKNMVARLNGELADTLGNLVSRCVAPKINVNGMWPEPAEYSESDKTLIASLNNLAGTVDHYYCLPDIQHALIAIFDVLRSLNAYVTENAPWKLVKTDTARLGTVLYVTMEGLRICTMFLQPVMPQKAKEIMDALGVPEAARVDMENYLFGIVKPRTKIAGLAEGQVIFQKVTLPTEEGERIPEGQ

All values are in %.
The record does not define 0% and 100%; most values in the screen are far below 50% and negative numbers occur (in some assays of this library far below -100).
This is an unselected part of the compounds tested.

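Primary screen of methionyl-tRNA synthetase; the read-out is not stated. Target: Methionyl-tRNA synthetase (putative), Leishmania donovani (UniProt E9BF75). The test concentration is not given. The values are filed as inhibition. Of about 68,000 compounds tested this way, about 24 (0.035%) reached 50% or more in at least one test.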

CCO[C@H]1CN(C)C[C@@H]1NC(=O)c1cc(C)nc2c(C)c(C)ccc12 read 10.23%.
Cc1cc(C(=O)NCc2ccnc(N3CCN(C)CC3)c2)c(C)s1 read 9.202%.
CC(C(=O)Nc1ccccc1F)S(C)(=O)=O (centres unmarked) read 0.2481%.
O=C(COC[C@H]1CC[C@H]2[C@H](CCN2c2ncccn2)O1)N1CCCC1 read 20.5%.
CC(C)c1nnc2n1CCN(Cc1csc(CC(=O)N(C)C)n1)C2 read -5.102%.
O=C(CN1CCCC1c1nc2cc(F)ccc2[nH]1)NCc1ccccn1 (centres unmarked) read 17%.
Nc1nccc(C2CCCN2CCc2ccccc2)n1 (centres unmarked) read 25.32%.
c1ncn(CC2CCCCN2Cc2csc(-c3ccsc3)n2)n1 (centres unmarked) read 25.63%.
C1CCC(CNC2CCCN(Cc3noc(C4CC4)n3)C2)C1 (centres unmarked) read 6.599%.
CC(C)c1nnsc1CN1CCc2[nH]nc(-c3ccc(Cl)cc3)c2C1 read 13.51%.
Cc1nnc(N2C[C@@H](OCC3CCCC3)[C@H]3OCCC[C@H]32)s1 read 9.774%.
CN(C)c1nccc(CNC(=O)NCc2ccco2)n1 read 13.24%.
CCn1nc(C)cc1S(=O)(=O)N1CCC2(CC(=O)NC2=O)C1 (centres unmarked) read 18.18%.
O=C(NCc1cccs1)c1[nH]nc2c1CS(=O)(=O)CC2 read 7.182%.
O=C(NCc1ccco1)[C@H]1C[C@@H]2CCN(c3nncs3)C[C@H]2O1 read 12.18%.
O=C(C1CCOC1)N1CCN(Cc2cccnc2)c2ncccc2C1 (centres unmarked) read 9.589%.
CNc1oc(-c2cc(S(=O)(=O)N3CCCC3)c(C)o2)nc1C#N read 13.03%.
Cc1cc(C)c(CNc2nc3ccccc3cc2CO)c(=O)[nH]1 read 9.943%.
O=C1CC(c2cccnc2)c2c(c(C(=O)O)cn2-c2ccc(Cl)cc2)N1 (centres unmarked) read 12.14%.
CN1CCCC2(CC1)CCN(C(=O)CCc1ccccc1F)CC2 read 20.53%.
CC(=O)NC(C)C(=O)NCc1ccc(N2CCNC(=O)C2)cc1 (centres unmarked) read 17.95%.
N#Cc1ccc(N2CC3(CCN(c4nccs4)C3)C2)nc1 read 12.68%.
O=C(c1ccncc1F)N1CCN(CC2CC2)c2ncccc2C1 read -25.31%.
O=C(c1nc2c(o1)CN(CC1CCC1)C2)N1CCCC1 read 6.522%.
CCc1nnc2n1CCN(CCC(=O)Nc1sccc1C#N)C2 read 19.32%.
O=C(NCc1cn2c(n1)CN(Cc1nccs1)CC2)C1CCC1 read 14.07%.
O=C(O)[C@@H]1CN(C(=O)CN2Cc3ccccc3C2)C[C@H]1c1ccncc1 read 7.5%.
O=S(=O)(C1CC1)N1CCC2(CCCN(c3ncccn3)C2)C1 (centres unmarked) read 3.636%.
CCS(=O)(=O)N1CC[C@H]2O[C@@H](c3nnc(C)o3)CC[C@H]21 read 16.19%.
Cc1cccc(Nc2noc3c2CN(C(=O)c2ccn(C)n2)CC3)c1C read 4.651%.
Cn1nc(-c2ccccc2NC(=O)c2cncc(Br)c2)ccc1=O read 0.7194%.
O=C1[C@H]2CN(Cc3ccoc3)C[C@H]2CN1Cc1ccncc1 read 8.661%.
O=C(NCCN1CCOCC1)NCC(O)c1cccc(F)c1 (centres unmarked) read 14.38%.
COc1cccc(-c2n[nH]cc2-c2nc(CN3CCCC3)no2)c1 read 14.89%.
CN(C)S(=O)(=O)N1CC(c2nc(N)ncc2-c2ccc(F)cc2)C1 read 17.02%.
CN(Cc1ccco1)[C@@H]1CN(Cc2ccc(F)cc2)C[C@@H]2CCCO[C@@H]21 read 9.013%.
Cc1c(Cl)cccc1NC(=O)N1CCC2(CC1)NC(=O)CC2C(=O)O (centres unmarked) read 8.289%.
O=C(Cc1cc2c(cc1Br)OCCO2)NC1CCS(=O)(=O)C1 (centres unmarked) read 0.7246%.
CC(=O)N1CCN(C(=O)Cn2ccc3c(Cl)cccc32)CC1 read 16.82%.
Cc1cnccc1CN1CC[C@H](Oc2cccc(F)c2)[C@@](C)(O)C1 read 10.12%.
Cc1nc(CN2CC(Cc3ccccc3)CC2=O)no1 (centres unmarked) read 13.31%.
CNc1cc(C2CCN2c2ncccn2)nc(C)n1 (centres unmarked) read 20%.
CNC(=O)[C@H]1C[C@@H]2CN(Cc3csc(C)n3)C[C@@H]2N1S(C)(=O)=O read -2.198%.
CN(Cc1ccc(F)cc1)Cc1nc(-c2cnccn2)no1 read 9.067%.
Cc1nc(CNC(=O)NC2CCN(c3ncccn3)CC2)cs1 read 2.454%.
CCC(CC)C(=O)NCc1cnn(CC)c1 read 13.6%.
CN(CC1COc2ccccc2O1)C(=O)CCn1cncn1 (centres unmarked) read 18.03%.
Cc1cnn(CCC(=O)N2CCCN(c3nc(C)cs3)CC2)c1 read 28.45%.
Cc1nnc2ccc(N3CCN(Cc4nccn4C)CC3)nn12 read 2.174%.
COc1ccc(C2CC(=O)NCc3nc(N(C)C)sc32)c(O)c1 (centres unmarked) read 8%.
O=C(CCn1cnnc1)N1CCCC(c2ncc[nH]2)C1 (centres unmarked) read 10.34%.
COc1ccc(-c2noc(Cn3cnc(C)c3)n2)c(OC)c1OC read 16.31%.
CCc1nc(N)nc(N2CCCC3(CCN(C)CC3)CC2)c1C read -1.37%.
COc1ccc2c(c1)OCC(Cc1ccc(N(C)C)nc1)C2 (centres unmarked) read 18.35%.